According to article PMC3507683, “Crystal Structure of the Hexachlorocyclohexane Dehydrochlorinase (LinA-Type2): Mutational Analysis, Thermostability and Enantioselectivity” (PLoS ONE, 2012):
These are yes or no findings as the source states them, for the method shown. Some results given as binding are weak or reduced against the parent protein; the word gives no strength.

Molecular target: Hexachlorocyclohexane dehydrochlorinase LinA-type2 (not stated (soil metagenome)) (UniProt P51697)
Assay: crystal structure; hanging drop, 293 K, 0.1 M trisodium citrate pH 5.5, 3% PEG 3350; space group P6(3)22; seven subunits in the asymmetric unit; 3.5 Å; both purified

B1: Hexachlorocyclohexane dehydrochlorinase LinA-type2 (enzyme, UniProt P51697 1-156, looked up)
chain: MSDLDRLASRAAIQDLYSDQLIGVDKRQEGRLASIWWDDAEWTIEGIGTYKGPEGALDLANNVLWPMYHETIHYGTNLRLEFVSADKVNGIGDVLCLGNLVEGNQSILIAAVYTNEYERRDGVWKFSKLNGCMNYFTPLAGIHFAPPGIHFAPSGA
notes: LinA-type2, gamma-hexachlorocyclohexane dehydrochlorinase variant obtained by PCR from metagenomic DNA of an HCH-contaminated soil (GenBank EU863871); It differs by 10 residues from LinA-type1 (= LinA-UT26 of Sphingobium japonicum UT26, 156 amino acids); The printed primers run from the ATG start codon to the last codon, without a stop codon; Homotrimer; also called -type2 protein; source: E. …
For B1, the binding was “binds”.
